We go through one molecule from article PMC8500980.

Experiment [1] concerns the target T1, FKBP51 (human (endogenous in A549 and SPC-A1)) (UniProt Q13451).
T1 sequence: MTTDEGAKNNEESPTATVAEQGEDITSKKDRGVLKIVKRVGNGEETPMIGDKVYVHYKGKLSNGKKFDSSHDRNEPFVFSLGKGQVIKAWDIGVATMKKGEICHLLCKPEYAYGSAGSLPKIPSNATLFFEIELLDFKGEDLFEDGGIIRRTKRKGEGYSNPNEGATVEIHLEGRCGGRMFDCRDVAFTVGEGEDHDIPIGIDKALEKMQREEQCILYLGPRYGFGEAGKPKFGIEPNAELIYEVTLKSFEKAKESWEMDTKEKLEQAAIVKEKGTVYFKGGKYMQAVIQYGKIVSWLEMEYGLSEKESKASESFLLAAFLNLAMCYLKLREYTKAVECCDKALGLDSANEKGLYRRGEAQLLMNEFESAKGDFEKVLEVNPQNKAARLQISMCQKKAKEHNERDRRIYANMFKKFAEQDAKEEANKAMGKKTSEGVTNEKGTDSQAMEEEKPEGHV
The experiment in a line: condition: only in cells overexpressing the lncRNA CCAT1; co-IP; total cell lysate incubated overnight with antibody against FKBP51, protein G sepharose, SDS-PAGE and immunoblot; cells overexpressing the lncRNA CCAT1 (pcDNA3.1/CCAT1). (In general: Immunoblotting shows a protein as a band on a membrane.)

For experiment [2], the target named is T1, FKBP51 (human (endogenous in A549 and SPC-A1)). Nature of the experiment: co-IP; total cell lysate incubated overnight with antibody against FKBP51, protein G sepharose, SDS-PAGE and immunoblot; cells with control or si-CCAT1 transfection.

No constants are given. Whether binding was seen depends on the method and setting. Binding seen in cells or lysates may run through a third protein. Some results given as binding are weak or reduced against the parent protein; the word gives no strength.

B1: ubiquitin specific peptidase 49 (USP49) (enzyme, UniProt Q70CQ1 1-688)
chain: MDRCKHVGRLRLAQDHSILNPQKWCCLECATTESVWACLKCSHVACGRYIEDHALKHFEETGHPLAMEVRDLYVFCYLCKDYVLNDNPEGDLKLLRSSLLAVRGQKQDTPVRRGRTLRSMASGEDVVLPQRAPQGQPQMLTALWYRRQRLLARTLRLWFEKSSRGQAKLEQRRQEEALERKKEEARRRRREVKRRLLEELASTPPRKSARLLLHTPRDAGPAASRPAALPTSRRVPAATLKLRRQPAMAPGVTGLRNLGNTCYMNSILQVLSHLQKFRECFLNLDPSKTEHLFPKATNGKTQLSGKPTNSSATELSLRNDRAEACEREGFCWNGRASISRSLELIQNKEPSSKHISLCRELHTLFRVMWSGKWALVSPFAMLHSVWSLIPAFRGYDQQDAQEFLCELLHKVQQELESEGTTRRILIPFSQRKLTKQVLKVVNTIFHGQLLSQVTCISCNYKSNTIEPFWDLSLEFPERYHCIEKGFVPLNQTECLLTEMLAKFTETEALEGRIYACDQCNSKRRKSNPKPLVLSEARKQLMIYRLPQVLRLHLKRFRWSGRNHREKIGVHVVFDQVLTMEPYCCRDMLSSLDKETFAYDLSAVVMHHGKGFGSGHYTAYCYNTEGGFWVHCNDSKLNVCSVEEVCKTQAYILFYTQRTVQGNARISETHLQAQVQSSNNDEGRPQTFS
Turning to B1, the binding result was “no binding” in experiment [1] and “binds” in experiment [2].
